Assay results taken from PubChem BioAssay AID743255 (National Center for Advancing Translational Sciences (NCATS), 2014).
Screen size: about 390,000 compounds; about 910 (0.23%) were called active. The inconclusive results got no clear call from the source; some entries with a clear call stand among them for comparison. Calls follow the shape of the dose curve; as a rule, active = well fitted inhibition curve with a large enough effect; inconclusive = small, poorly fitted or top-dose-only effect; inactive = no such curve, though single readings can be large or run the other way. Potencies beside an inconclusive call are fits to weak or partial responses and may not hold up.

Amino acid sequences for entries named in this document (tags omitted). A change or cut given only in a name is not applied to a line headed by its entry.
UniProt O94782: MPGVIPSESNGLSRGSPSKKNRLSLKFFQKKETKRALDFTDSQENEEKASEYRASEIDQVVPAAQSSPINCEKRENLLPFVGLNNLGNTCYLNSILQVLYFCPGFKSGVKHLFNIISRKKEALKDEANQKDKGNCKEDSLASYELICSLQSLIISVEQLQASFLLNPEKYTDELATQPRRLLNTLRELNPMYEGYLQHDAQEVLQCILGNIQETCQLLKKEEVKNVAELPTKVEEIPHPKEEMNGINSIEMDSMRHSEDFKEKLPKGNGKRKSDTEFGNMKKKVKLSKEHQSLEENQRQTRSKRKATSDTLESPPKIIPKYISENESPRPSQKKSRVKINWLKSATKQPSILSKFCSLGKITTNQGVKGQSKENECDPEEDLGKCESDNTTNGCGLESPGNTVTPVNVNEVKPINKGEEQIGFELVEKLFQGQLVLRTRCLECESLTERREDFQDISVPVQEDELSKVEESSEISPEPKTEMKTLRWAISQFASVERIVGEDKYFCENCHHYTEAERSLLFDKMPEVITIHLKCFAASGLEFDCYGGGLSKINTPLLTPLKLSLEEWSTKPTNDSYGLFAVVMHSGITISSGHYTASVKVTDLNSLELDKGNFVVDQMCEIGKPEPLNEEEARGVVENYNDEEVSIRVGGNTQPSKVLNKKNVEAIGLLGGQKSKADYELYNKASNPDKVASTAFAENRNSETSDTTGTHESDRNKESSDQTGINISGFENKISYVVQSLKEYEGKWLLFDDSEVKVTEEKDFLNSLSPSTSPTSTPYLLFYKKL

The compounds below were run against Ubiquitin carboxyl-terminal hydrolase 1 (Homo sapiens) (UniProt O94782) (assay: Inhibitors of USP1/UAF1: Primary Screen). Details: recombinant USP1/UAF1, Ub-Rhodamine cleavage fluorescence; series mostly up to 57.1 µM.
Outline: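 High-throughput fluorogenic screen: 1nM USP1/UAF1 complex, Ub-Rho substrate 150nM final, 50mM HEPES pH 7.8 with 0.5mM EDTA, 0.1 mg/ml BSA, 1mM TCEP and 0.01% Tween-20.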
Also: nearly all actives have a fitted effect of over 60% in size.
Potency is read from the fitted curve at half-maximal effect.

Potency, inactive:
Cc1cccn2cc(CNC(=O)c3ccco3)nc12
CCn1nc(C)c(CNC(=O)CCc2nnc(Cc3c[nH]c4ccccc34)o2)c1C
CCn1nc(C(=O)Nc2ccc3c(c2)OCCO3)c2ccccc2c1=O
O=C(c1ccc(SCc2ccco2)c([N+](=O)[O-])c1)N1CCOCC1
O=C(NCc1ccc(Cl)cc1)C1CCCN1C(=O)Nc1ccccc1 (stereo unspecified)
CCN(C(=O)COC(=O)/C=C/c1ccc(OC)c(OC)c1)c1c(N)n(Cc2ccccc2)c(=O)[nH]c1=O
O=C(O)c1ccc2c(c1)C1C=CCC1C(c1ccncc1)N2 (stereo unspecified)
CCN(C(=O)CSc1nnc(C)c(=O)[nH]1)c1cccc2ccccc12
O=C(Nc1nccs1)c1cn(-c2ccccc2)nc1-c1ccncc1
COc1ccc(OCc2nc(C#N)c(NCc3ccccc3Cl)o2)cc1
Cc1cc(SCC(=O)Nc2nsc(-c3ccc(C(C)(C)C)cc3)n2)nc2ccccc12
CC(C)=NNc1nc2c(c(=O)[nH]c(=O)n2C)n1CCc1ccccc1
O=C(NCc1ccc2c(c1)OCO2)C1CCC(CNS(=O)(=O)c2cccc3nsnc23)CC1 (stereo unspecified)

Structural class: the compounds so far with an aryl thioether with sulfur outside any ring (3)
Potency, inactive:
O=C(c1ccc(SCc2ccco2)c([N+](=O)[O-])c1)N1CCOCC1
CCN(C(=O)CSc1nnc(C)c(=O)[nH]1)c1cccc2ccccc12
Cc1cc(SCC(=O)Nc2nsc(-c3ccc(C(C)(C)C)cc3)n2)nc2ccccc12

Next part:

Potency, inconclusive:
O=C(O)COc1ccc(/C=N/NC(=O)c2ccc(-c3csc(Nc4ccc(Cl)cc4)n3)cc2)cc1 14.1 µM [inhibitor, partial curve]
CC(=O)c1sc2nc(CSc3nncn3C)[nH]c(=O)c2c1C 3.16 µM [inhibitor, partial curve]
CCn1cc(/C=C/c2cc[n+](C)cc2)c2ccccc21 31.6 µM [inhibitor, partial curve, poor fit]
CNC[C@@H]1Oc2c(NC(=O)Nc3ccccc3)cccc2C(=O)N([C@@H](C)CO)C[C@H]1C 0.112 µM [inhibitor, full curve, poor fit]
CCN(CC)CC(C)(C)C(=O)/C=C/c1ccc(/C=C/C(=O)C(C)(C)CN(CC)CC)cc1 44.7 µM [inhibitor, partial curve]
Cc1cc(N=Cc2c(O)n(-c3ccc4c(c3)OCO4)c(=O)c3ccccc23)ccn1 39.8 µM [inhibitor, partial curve]
COC(=O)c1cc2c(C)cc3ccc(C)cn3c-2c1C(=O)OC 39.8 µM [inhibitor, partial curve, poor fit]
CCC1CCCCN1CCCNC(=O)Cn1nc(-c2ccccc2)ccc1=O (stereo unspecified) 22.4 µM [inhibitor, single point]
N=c1c(S(=O)(=O)c2ccc(Cl)cc2)cc2c(=O)n3ccccc3nc2n1Cc1ccco1 44.7 µM [inhibitor, partial curve]
O=C(Nc1nc(-c2ccccn2)cs1)c1cccc(S(=O)(=O)N2CCOCC2)c1 31.6 µM [inhibitor, single point]
Clc1ccc(OCc2cn3ccccc3n2)c2ncccc12 39.8 µM [inhibitor, partial curve, poor fit]
CN(CCC#N)C(=O)COC(=O)c1c2c(nc3ccccc13)/C(=C/c1ccco1)CC2 39.8 µM [inhibitor, partial curve, poor fit]
COC(=O)c1ccc(N2CCN(C(=O)c3ccccc3)CC2)c(NC(C)=O)c1 7.94 µM [inhibitor, partial curve]
COc1ccc(C(=O)NC2CCSc3ccccc32)cc1S(=O)(=O)N1CCOCC1 (stereo unspecified) 5.62 µM [inhibitor, full curve, poor fit]
COc1cc(/C=C2/C(=O)NN(c3cccc(C)c3)C2=O)cc([N+](=O)[O-])c1O 31.6 µM [inhibitor, partial curve]
C[C@H]1CN([C@@H](C)CO)C(=O)CCCn2cc(nn2)CO[C@@H]1CN(C)C(=O)Nc1ccccc1 0.316 µM [inhibitor, full curve]
O=C(Nc1ccc(F)cc1F)N1CCc2c(sc3c2CCCC3)C1c1ccc(F)cc1 (stereo unspecified) 35.5 µM [inhibitor, partial curve, poor fit]
Cc1ccc(C(=O)/C=C/c2cn(CC(O)CN3CCCCCC3)c3ccccc23)cc1 (stereo unspecified) 31.6 µM [inhibitor, single point]
COc1ccc(NC(=O)CN2CCN(c3ccccc3F)CC2)c(OC)c1 7.94 µM [inhibitor, full curve]
COC(=O)c1c(-c2ccsc2)sc2ccc(-c3cc(OC)c(OC)c(OC)c3)cc12 39.8 µM [inhibitor, partial curve]
CCOC(=O)c1ccc(N2C(=O)Cc3ccccc3C2=O)cc1 17.8 µM [inhibitor, partial curve]
COc1ccc(S(=O)(=O)NCCc2sc(-c3cccc(F)c3)nc2C)cc1 447 µM [inhibitor, partial curve, poor fit]
CC(C)c1ccc(NC(=O)CN2C(=O)CCc3cc(S(=O)(=O)N4CCOCC4)ccc32)cc1 44.7 µM [inhibitor, partial curve]
COc1cccc(C2=NN(C(=O)c3ccccc3)C(O)(C(F)(F)F)C2)c1 (stereo unspecified) 50.1 µM [inhibitor, partial curve, poor fit]
C/C(CC(=O)Nc1cccc(C(F)(F)F)c1)=N\NC(=O)C(=O)NCC(C)C 44.7 µM [inhibitor, partial curve, poor fit]
COn1c(C)c(C)c2c3nonc3ccc21 35.5 µM [inhibitor, partial curve]
O=C(Cn1cc(COc2cccc([N+](=O)[O-])c2)nn1)c1ccc(O)cc1 0.355 µM [inhibitor, full curve, poor fit]
CC(=O)Nc1ccc(S(=O)(=O)Nc2nc3n(n2)C(c2ccccc2)C=C(c2ccc(Cl)cc2)N3)cc1 (stereo unspecified) 17.8 µM [inhibitor, partial curve]
